Data as given in US11471462B2, “Compositions and methods for detecting and treating diabetes” (THE BROAD INSTITUTE, INC., priority 2016, dated 2022).
At least one structure is not confirmed: it was looked up by name or label, or the drawing left a doubt.

Legend:
human leukemia cells = conditions: cited from earlier work
SLC16A11 protein = SLC16A11 protein levels in HuH7 cells cultured with metabolites (Western blot); format: cell-based, human; conditions: HuH7 cells stably expressing SLC16A11, cultured with metabolite 24 hr
Source text: FIG. 19 provides Western blots and experimental protocol steps involved in the analysis of SLC16A11 protein levels after culture of HuH7 cells stably expressing SLC16A11 in the presence or absence of various metabolites, namely, pyruvate, lactate and glucose. Cell lysates were used in the analysis. […] Tubulin is shown as a reference. As shown, glucose, pyruvate and […] are metabolites that affect SLC16A11 protein levels.
FIG. 20 provides Western blots of V5-tagged SLC16A11 (WT) and the V5-tagged SLC16A11 variant, T2D risk, stably expressed in HuH7 cells that had been glucose-starved for the times indicated. Cell lysates were used in the analysis. […] A similar finding is observed in the left blot of FIG. 19, above, in which no SLC16A11 protein was detected in cell lysates cultured for 24 hrs without glucose compared with detectable levels of SLC16A11 protein found in lysates from cultures containing 1-5 g/L of glucose.
FIG. 21 provides Western blots of V5-tagged SLC16A11 (WT) and the V5-tagged SLC16A11 variant, T2D risk, stably expressed in HuH7 cells that been cultured for 24 hours with or without glucose and with either low (L) or high (H) concentrations of pyruvate and lactate as indicated. Cell lysates were used in the analysis. […]

SLC16A13 = assay: Metabolic effectors on SLC16A13 transcript levels in SNU761 cells; format: cell-based, human; conditions: 24 hours, high concentration (10 mM pyruvate, 100 mM lactate)
Description: (§1) FIG. 22 provides bar graphs showing the effects of low and high concentrations of metabolic effectors (oleic acid (OA), insulin and glucagon) on expression levels of SLC16A11 and SLC16A13 transcripts in SNU761 cells cultured for 24 hours in the presence of low/high concentrations of OA (0.3 mM/1.5 mM); insulin (100 nM/500 nM); or glucagon (100 nM/500 nM). Relative transcipt levels of SLC16A11 and SLC16A13 are shown, with 2-FBS (2% Fetal Bovine Serum) used as control. […]
(§2) To assess whether metabolic effectors regulated SLC16A11 and SLC16A13 transcript levels, endogenous transcripts in SNU761 cells (derived from a human hepatocellular carcinoma) were examined following exposure of the cells to different metabolic perturbations. SNU761 cells were cultured in the presence of various metabolic effectors for 24 hours after which time cell lysates were collected and the relative endogenous expression levels of SLC16A11 and SLC16A13 transcripts were assessed. […] Similarly, SNU761 cells were cultured in the presence or absence of low or high concentrations of pyruvate or lactate in the culture medium for 24 hours after which time cell lysates were analyzed. […]

SLC16A11 = assay: Metabolic effectors on SLC16A11 transcript levels in SNU761 cells; format: cell-based, human; conditions: 24 hours, low and high concentrations
Description: as §1, §2

Row | SMILES | shift of metabolism on inhibiting mTORC1 (human leukemia cells) | SLC16A11 protein levels (SLC16A11 protein) | relative transcript levels of SLC16A13 (SLC16A13) | SLC16A11 transcript levels (SLC16A11)
1 | CO[C@H]1C[C@@H]2CC[C@@H](C)[C@@](O)(O2)C(=O)C(=O)N2CCCC[C@H]2C(=O)O[C@H]([C@H](C)C[C@@H]2CC[C@@H](O)[C@H](OC)C2)CC(=O)[C@H](C)/C=C(\C)[C@@H](O)[C@@H](OC)C(=O)[C@H](C)C[C@H](C)/C=C/C=C/C=C/1C [rapamycin, reference compound] | rapidly shift metabolism from TCA cycle and oxidative phosphorylation to reliance on glycolysis | – | – | –
2 | CC(=O)C(=O)O [pyruvate] | – | alter SLC16A11 protein levels | increased | alter transcripts at 17p13
